Results on 3 sequences are retold here after article PMC11040210.

For at least one entry, the source does not settle the construct or the ends of the probe.

The subject of series [1] is BpNAC90 S205A (Betula platyphylla (birch)). The series can be described thus: EMSA. Conditions: text: can still bind, abstract says decreased binding capability; EMSA: protein and biotin probe incubated 2 h at room temperature, PAGE, chemiluminescent EMSA kit (Beyotime); salt and pH not stated; recombinant protein; label: 5' biotin on both strands.
Series [2] deals with BpNAC90 (Betula platyphylla (birch)). Put plainly: EMSA. Conditions: shift decreased by increasing unlabeled competitor; EMSA: protein and biotin probe incubated 2 h at room temperature, PAGE, chemiluminescent EMSA kit (Beyotime); salt and pH not stated; recombinant protein; protein details: MBP (pMAL-c5x); label: 5' biotin on both strands.

On to “AACACCAACACCAACACC (double strand) [EMSA-EOMES2 (3x AACACC)]”, for which the binding result in series [1] and in series [2] was “binds” each time.

Consider “CACGTGACACGTGACACGTG (double strand) [EMSA-ABRE (3x CACGTG)]”, for which the binding result in series [1] and in series [2] was “binds” throughout.

Turning to “TGTCATGTCATGTCA (double strand) [EMSA-Tgif2 (3x TGTCA)]”, the binding result in series [1] and in series [2] was “binds” throughout.
